In patent publication US20100075907A1, “NEUROMEDIN U RECEPTOR AGONISTS AND USES THEREOF” (priority 2006, published 2010):
For some of these results: At least one peptide structure holds a part that was inferred or is arguable (an end, a ring closure or a residue). For some of these results: At least one structure is not confirmed: it was looked up by name or label, or the drawing left a doubt. No end group written: not given here.

Amino acid sequences for entries named in this document (tags omitted). A change or cut given only in a name is not applied to a line headed by its entry.
UniProt Q8BZ39: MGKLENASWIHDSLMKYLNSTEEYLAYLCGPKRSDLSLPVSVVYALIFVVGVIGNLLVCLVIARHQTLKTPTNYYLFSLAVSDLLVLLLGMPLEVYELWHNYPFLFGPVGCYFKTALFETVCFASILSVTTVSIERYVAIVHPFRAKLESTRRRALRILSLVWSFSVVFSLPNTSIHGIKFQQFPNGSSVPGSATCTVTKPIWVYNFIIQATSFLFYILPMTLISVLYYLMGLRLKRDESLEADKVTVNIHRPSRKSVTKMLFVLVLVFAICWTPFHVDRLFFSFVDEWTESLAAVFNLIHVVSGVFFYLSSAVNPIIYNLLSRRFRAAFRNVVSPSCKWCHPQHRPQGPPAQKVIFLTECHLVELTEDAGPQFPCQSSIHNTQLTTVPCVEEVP

What was measured:
[1] = biological target: T1, hNMUR1 (Homo sapiens, UniProt Q9HB89); test: 125I-hNMU-25 binding assay, human NMUR1 membranes; design: expressed in transfected cells; host or cells: HEK-293 FLP-In cells (pcDNA5); HEK-293/aeq17 lines (pIRES-puro) were also made; details: Table 9, HEK-hR1, binding
T1 sequence (Q9HB89 1-426): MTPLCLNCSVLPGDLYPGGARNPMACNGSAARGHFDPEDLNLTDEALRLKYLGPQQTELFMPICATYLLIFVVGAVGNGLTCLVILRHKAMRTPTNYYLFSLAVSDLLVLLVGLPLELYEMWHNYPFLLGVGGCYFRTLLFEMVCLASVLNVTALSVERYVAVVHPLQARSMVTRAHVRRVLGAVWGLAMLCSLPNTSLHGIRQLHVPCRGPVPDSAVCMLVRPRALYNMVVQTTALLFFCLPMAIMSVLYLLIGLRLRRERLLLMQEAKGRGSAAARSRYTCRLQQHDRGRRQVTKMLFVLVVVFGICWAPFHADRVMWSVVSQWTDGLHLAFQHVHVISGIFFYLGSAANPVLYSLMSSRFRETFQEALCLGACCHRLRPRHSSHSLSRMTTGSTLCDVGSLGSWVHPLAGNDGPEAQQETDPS
Protocol: Confluent cell monolayers expressing NMU receptors (the HEK cells described above) were harvested with phosphate buffered saline, collected by centrifugation, and resuspended in membrane buffer (50 mM TrisCl pH 7.4, 5 mM MgCl2, 1× Protease Inhibitor Cocktail, 10 μM phosphoramidon). After the cell pellet was homogenized, the solution was centrifuged at 18,000 rpm for 20 minutes at 4° C. The pellet was resuspended in membrane buffer to yield a final concentration of 0.5-5 μg/μL of membrane and stored at −80° C.
Experiments were performed in assay buffer (25 mM TrisCl, pH 7.4, 10 mM MgCl2, 2 mM EDTA, 1× Protease Inhibitor Cocktail, 100 μg/mL Bacitricin, 10 μM phosphoramidon) in 200 μL volumes in a 96-well format using 2-5 μg of membrane and 0.1 nM ^125I-hNMU-25 (about 12,000 cpm/well). For non-specific binding, 1 μM hNMU-25 was added. About 5 μL of peptides were added to measure antagonist activity, and the entire reaction was incubated at room temperature with shaking for 80 minutes. The reaction was terminated by rapid filtration through 0.3% poly-ethylenimine presoaked Millipore 96-well filter plates and washed with ice-cold buffer (5 mM TrisCl pH 7.4, 10 mM MgCl2, 2.5 mM EDTA, 0.04% Triton X-100). Plates were air-dried overnight at room temperature and recovered radioactivity was determined by standard scintillation counting. IC50 values were determined using GraphPad Prism software. […]

[2] = biological target: T1, hNMUR1; test: In vitro functional assay, HEK-hR1 cells; assay type: cell-based; design: expressed in transfected cells; host or cells: FLP-In CHO or HEK-293 FLP-In cells (pcDNA5); HEK-293/aeq17 lines (pIRES-puro) were also made; details: Table 9, HEK-hR1, functional
Text: Human, mouse or rat cDNAs encoding NMUR1 or NMUR2 (as described in Howard et al. Nature 406: 70-74 (2000) were subcloned in pcDNA5 (Invitrogen) and transfected into FLP-In CHO cells and HEK-293 FLP-In cells purchased from Invitrogen (Carlsbad, Calif.) using lipofectamine (Invitrogen). The Flp-In system allows integration and expression of a particular gene of interest at a specific genomic location utilizing the Flp recombinase from yeast. The transfected cells were selected by growth in medium containing 200 μg/mL hygromycin (Invitrogen). Populations were frozen at early passage numbers, and these stocks were used for further studies. […]
(§1) After a 90 minute incubation at room-temperature, cell plates were loaded onto a FLIPR (Molecular Devices) to monitor cellular fluorescence (excitation=488 nm; emission=540 nm) before and after compound/peptide addition. […] The response after peptide addition was taken as the maximum fluorescence units minus the fluorescence immediately prior to stimulation for each well. EC50 values were calculated using GraphPad Prism (San Diego, Calif.) software.
In addition to FLIPR, NMU receptor function can also be evaluated using an aequorin assay. […] Calcium-dependent luminescence is generated by the treatment of cells with the coelenterate luciferin, coelenterazine. […] Agonists are added to the cells and activity is determined using a luminometer. […]

[3] = biological target: T2, mouse NMUR1-ATG (Mus musculus, UniProt O55040); test: FLIPR calcium mobilization assay, mouse NMUR1-ATG; assay type: cell-based; design: expressed in transfected cells; host or cells: FLP-In CHO or HEK-293 FLP-In cells (pcDNA5)
T2 sequence (O55040 1-428): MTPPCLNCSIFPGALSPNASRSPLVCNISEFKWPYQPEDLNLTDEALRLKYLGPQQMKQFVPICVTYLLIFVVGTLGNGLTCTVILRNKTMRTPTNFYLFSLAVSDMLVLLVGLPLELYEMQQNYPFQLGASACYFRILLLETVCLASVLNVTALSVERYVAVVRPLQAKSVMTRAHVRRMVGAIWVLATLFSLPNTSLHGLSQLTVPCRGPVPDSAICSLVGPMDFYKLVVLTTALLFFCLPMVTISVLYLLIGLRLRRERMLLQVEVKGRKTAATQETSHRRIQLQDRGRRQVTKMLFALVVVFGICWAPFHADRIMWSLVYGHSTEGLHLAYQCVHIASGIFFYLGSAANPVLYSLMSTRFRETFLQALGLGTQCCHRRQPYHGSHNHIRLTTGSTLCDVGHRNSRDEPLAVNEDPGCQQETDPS
Text: (§2) Human, mouse or rat cDNAs encoding NMUR1 or NMUR2 (as described in Howard et al. Nature 406: 70-74 (2000) were subcloned in pcDNA5 (Invitrogen) and transfected into FLP-In CHO cells and HEK-293 FLP-In cells purchased from Invitrogen (Carlsbad, Calif.) using lipofectamine (Invitrogen). The Flp-In system allows integration and expression of a particular gene of interest at a specific genomic location utilizing the Flp recombinase from yeast. The transfected cells were selected by growth in medium containing 200 μg/mL hygromycin (Invitrogen). Populations were frozen at early passage numbers, and these stocks were used for further studies. Stable clones that expressed the mRNAs were identified functionally by FLIPR as well as by RT-PCR. […] Two different rodent NMUR1 cell lines were thus generated: one with the codon as predicted from the genomic databases and another cell line with an engineered methionine (ATG) as the start codon. […]
as §1, with “software. […]” for “software.”

[4] = biological target: mouse NMUR2 (Mus musculus, UniProt Q8BZ39); test: FLIPR calcium mobilization assay, mouse NMUR2; assay type: cell-based; design: expressed in transfected cells; host or cells: FLP-In CHO or HEK-293 FLP-In cells (pcDNA5)
Text: as §2
as §1, with “software. […]” for “software.”

Compound	IC50 [1] [nM]	EC50 [2] [nM]	EC50 [3] [nM]	EC50 [4] [nM]
CC(C)C[C@H](NC(=O)[C@H](Cc1ccccc1)NC(=O)[C@@H](N)Cc1ccc(O)cc1)C(=O)N[C@@H](Cc1ccccc1)C(=O)N[C@@H](CCCNC(=N)N)C(=O)N1CCC[C@H]1C(=O)N[C@@H](CCCNC(=N)N)C(=O)N[C@@H](CC(N)=O)C(N)=O [NMU-8, reference compound]	2.4	1.36		
GYFLFRPRN-NH2 [NMU3]			2.9	1
